Assay results as given in patent US20250084372A1, “IN VITRO DERIVATION OF GONADAL SOMATIC CELLS” (Conception Bisosciences, Inc., priority 2020, published 2025).
For at least one compound, name, drawing or mass did not settle the structure.

Tests used:
[1] = test system: mouse fetal ovarian somatic cells; test: Murine gonadal induction: immunofluorescent staining for Fox12; format: cell-based; settings: 1 μM added to murine gonadal induction medium, 7 days
OSCs = test: Bulk RNAseq of OSCs; format: cell-based, human; settings: retinoic acid treated OSCs, D7 and D14
[2] = test system: ovarian somatic cells (OSCs); test: RA concentration and exposure gradient during OSC induction, FOXL2 and KRT19 staining
[3] = test system: second intermediate cell population (LHX1, PAX2, WT1, RUNX1); test: Intermediate mesoderm marker expression in second intermediate cell population; format: cell-based, human; settings: increasing concentration
Protocol: The cell suspension was centrifuged at 1200 RPM for 5 min and the supernatant was discarded. The centrifuged cells were resuspended in 1 ml of GK2 medium and the cells were counted. […] The plates were cultured for 24 hours, and then 80% of the media was replaced with fresh IM-induction media without the ROCK inhibitor. 80% of the media was again replaced every other day until the cells became confluent (about 5-6 days). Once the cells were confluent, the cells were passaged to fresh fibronectin-coated 24-well plates, with at least 50,000 cells per well after passage (25k/cm^2).

[4] = test system: second intermediate cell population; test: Induction of second intermediate (IM) cell population: survival and morphology, phase contrast; format: cell-based, human
Protocol: The cell suspension was centrifuged at 1200 RPM for 5 min and the supernatant was discarded. The centrifuged cells were resuspended in 1 ml of GK2 medium and the cells were counted. About 720,000 cells (from 24 well plate: 30,000 cells per well) were added to 12 mL IM-induction medium (as prepared in Table 10, but without the ROCK inhibitor). 12 μL ROCK inhibitor Y-27632 (1000×) or 36 μL of CET (3:1000) (final concentration of CET in media: 50 nM Chroman1, 5 μM Emricasan, 0.7 μM Trans-ISRIB) was added to obtain 60,000 cells/mL. 500 μL of the solution was placed in each well of fibronectin coated 24-well plate (about 30,000 cells/well). The plates were cultured for 24 hours, and then 80% of the media was replaced with fresh IM-induction media without the ROCK inhibitor. 80% of the media was again replaced every other day until the cells became confluent (about 5-6 days). Once the cells were confluent, the cells were passaged to fresh fibronectin-coated 24-well plates, with at least 50,000 cells per well after passage (25k/cm^2). About 4-5 million second intermediate cells were produced per 24 well plate. […]

gonadal somatic cells = test: Generation of gonadal somatic cells: RNA-seq, immunofluorescent staining, flow cytometry; format: cell-based, human
[5] = short exposure, 100 nM, 500 nM, 1 μM, fixed at D7

CC1=C(/C=C/C(C)=C/C=C/C(C)=C/C(=O)O)C(C)(C)CCC1 [RA, retinoic acid] was tested, and the “total number of cells expressing Fox12 protein” value [1] was “increase”, the “expression in clusters of genes enriched for regulation of hormone levels and cell proliferation” value (OSCs) was “increased expression” and the “KRT19 expression, incl. cytoplasmic KRT19” value ([2]; RA present during OSC induction for more than 2 days) was “higher levels”. The KRT19 staining ([2]; increasing RA, 0 μM to 10 μM) was “increase”, the “percentage of nuclei positive for FOXL2 staining” value ([2]; increasing RA, 0 μM to 10 μM) was “decrease” and the FOXL2 positive cells [2, 5] was “decrease”. The KRT19 positive cells [2, 5] was “increase”, the “expression of intermediate mesoderm markers WT1 and RUNX1” value ([3]; CHIR 0.5, 1 or 2 μM, RA or TTNPB 0, 0.1, 0.5 or 1 μM) was “increased expression” and the “expression of intermediate mesoderm markers LHX1 and PAX2” value ([3]; CHIR 1, 2 or 3 μM, RA 50 nM, 100 nM, 500 nM or 1 μM) was “increased expression”. For the same molecule, the “cell survival and cellular morphology of second intermediate cell population” value ([4]; 5 days in IM-induction media, increasing concentration) was “increased cell survival and uniform cellular morphology”, the “survival of IM cells and induction of gonadal somatic cell differentiation” value ([4]; IM-induction media with increasing RAPM, data not shown) was “better survival and induction of gonadal somatic cell differentiation” and the “expression of KRT19” value (gonadal somatic cells; RA treatment during differentiation of second intermediate cell population) was “increased expression”. For the same molecule, the “granulosa cell marker FOXL2 and RUNX1 expression in long term culture” value (gonadal somatic cells; differentiation medium comprising RA) was “increased”, the “survival of gonadal cells in long term culture” value (gonadal somatic cells; differentiation medium comprising RA, cells without RA did not survive by D21) was “increased survival” and the “FOXL2- and NR2F2-positive cells in the gonadal cell population” value (gonadal somatic cells; higher concentration of RA in IM-induction media, immunofluorescent staining) was “higher levels”.
